Drawing on US20250025482A1, “USE OF C[…] THE TREATMENT OF EPILEPSY” (GW Research Limited, priority 2021, published 2025), this text covers solubility in water for one molecule.

A short description of this series: Solubility of the drug substance in water. It is filed as physicochemical.

Turning to `C=C(C)[C@@H]1CCC(C)=C[C@H]1c1c(O)cc(CCCCC)cc1O` [CBD, Cannabidiol], the solubility in water entry is on record as “insoluble in water”.
